This test addresses GFP-tagged Calhm6 fragment, CHD domain (residues 204-315). The experiment in a line: co-IP; 293T lysates, Flag-CaMK4 or Flag-Chp1 with fragments of GFP-tagged Calhm6; anti-GFP IP, blot with tag antibodies (Figure 7K, 7L).

No constants are given. Whether binding was seen depends on the method and setting. Binding seen in cells or lysates may run through a third protein. Binding can be weak; no strength is given. Where a sequence is shown, tags or fusion partners need not be part of it.

B1: Flag-tagged CaMK4 (protein, UniProt P08414 1-469)
chain: MLKVTVPSCPSSPCSSVTASTENLVPDYWIDGSNRDPLGDFFEVESELGRGATSIVYRCKQKGTQKPYALKVLKKTVDKKIVRTEIGVLLRLSHPNIIKLKEIFETPTEISLVLELVTGGELFDRIVEKGYYSERDARDAVKQILEAVAYLHENGIVHRDLKPENLLYATPAPDAPLKIADFGLSKIVEHQVLMKTVCGTPGYCAPEILRGCAYGPEVDMWSVGIITYILLCGFEPFYDERGDQFMFRRILNCEYYFISPWWDEVSLNAKDLVKKLIVLDPKKRLTTFQALQHPWVTGKAANFVHMDTAQKKLQEFNARRKLKAAVKAVVASSRLGSASSSHTSIQENHKASSDPPSTQDAKDSTDLLGKKMQEEDQEEDQVEAEASADEMRKLQSEEVEKDAGVKEEETSSMVPQDPEDELETDDPEMKRDSEEKLKSVEEEMDPMTEEEAPDAGLGVPQQDAIQPEY
Regarding B1, the binding result was “binds”.

Source of the values: paper PMC12766987.
